Reference: PubChem BioAssay AID1224830 (NIAID, 2016)
Shown is an unselected part of about 18,000 deposited reagents. In the full data, about 2,900 (16%) are marked active. 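Calls are made per well; low scores hint the gene aids the LPS response, high scores that it dampens it.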 Repeated entries: four replicate wells of each siRNA pool. Reagent sequences are not shown.

- Aim: 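Host factors that control LPS-induced TNF expression in human macrophages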 (primary screen)
- System: human THP-1 monocytic leukaemia cells, TNF dual-luciferase reporter clone, PMA-differentiated to macrophage-like cells
- Reagent: siRNA pool against human genes, 50 nM
- Timing: LPS for 4 h, given about 3 days after siRNA transfection
- Conditions: bacterial LPS (TLR4 ligand), 10 ng/ml
- Read-out: 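TNF firefly reporter luminescence divided by renilla, normalised to the plate median, then turned into a robust z-score for each replicate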
- Scale: TNF reporter robust z-score: higher = stronger TNF reporter response to LPS
- Hit rule: 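a well is active when its z-score exceeds 2.8 or falls below -1.5; control wells carry no call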

The opening 3 entries as a preview:
ENTPD3 (ectonucleoside triphosphate diphosphohydrolase 3)
- TNF reporter robust z-score: -0.25
- call: inactive

ENTPD3 (ectonucleoside triphosphate diphosphohydrolase 3)
- TNF reporter robust z-score: -1.06
- call: inactive

ENTPD3 (ectonucleoside triphosphate diphosphohydrolase 3)
- TNF reporter robust z-score: 0.22
- call: inactive

Results, repeating the preview:
ENTPD3 (ectonucleoside triphosphate diphosphohydrolase 3)
- TNF reporter robust z-score: -0.25
- call: inactive

ENTPD3 (ectonucleoside triphosphate diphosphohydrolase 3)
- TNF reporter robust z-score: -1.06
- call: inactive

ENTPD3 (ectonucleoside triphosphate diphosphohydrolase 3)
- TNF reporter robust z-score: 0.22
- call: inactive

ENTPD3 (ectonucleoside triphosphate diphosphohydrolase 3)
- TNF reporter robust z-score: -0.07
- call: inactive

SULT1A4 (sulfotransferase family 1A member 4)
- TNF reporter robust z-score: -1.02
- call: inactive

SULT1A4 (sulfotransferase family 1A member 4)
- TNF reporter robust z-score: -0.81
- call: inactive

SULT1A4 (sulfotransferase family 1A member 4)
- TNF reporter robust z-score: -0.2
- call: inactive

SULT1A4 (sulfotransferase family 1A member 4)
- TNF reporter robust z-score: 0.03
- call: inactive

ACTL6B (actin like 6B)
- TNF reporter robust z-score: -0.67
- call: inactive

ACTL6B (actin like 6B)
- TNF reporter robust z-score: 0.33
- call: inactive

ACTL6B (actin like 6B)
- TNF reporter robust z-score: -0.18
- call: inactive

ACTL6B (actin like 6B)
- TNF reporter robust z-score: -0.45
- call: inactive

DMXL2 (Dmx like 2)
- TNF reporter robust z-score: 0.45
- call: inactive

DMXL2 (Dmx like 2)
- TNF reporter robust z-score: 0.92
- call: inactive

DMXL2 (Dmx like 2)
- TNF reporter robust z-score: -0.3
- call: inactive

DMXL2 (Dmx like 2)
- TNF reporter robust z-score: -1.19
- call: inactive

HRK (harakiri, BCL2 interacting protein)
- TNF reporter robust z-score: 0.82
- call: inactive

HRK (harakiri, BCL2 interacting protein)
- TNF reporter robust z-score: 2.41
- call: inactive

HRK (harakiri, BCL2 interacting protein)
- TNF reporter robust z-score: 0.32
- call: inactive

HRK (harakiri, BCL2 interacting protein)
- TNF reporter robust z-score: 1.43
- call: inactive

OR2B11 (olfactory receptor family 2 subfamily B member 11)
- TNF reporter robust z-score: 0.29
- call: inactive

OR2B11 (olfactory receptor family 2 subfamily B member 11)
- TNF reporter robust z-score: 0.74
- call: inactive

OR2B11 (olfactory receptor family 2 subfamily B member 11)
- TNF reporter robust z-score: -0.08
- call: inactive

OR2B11 (olfactory receptor family 2 subfamily B member 11)
- TNF reporter robust z-score: 0.69
- call: inactive

RNFT2 (ring finger protein, transmembrane 2)
- TNF reporter robust z-score: -0.4
- call: inactive

RNFT2 (ring finger protein, transmembrane 2)
- TNF reporter robust z-score: -1.1
- call: inactive

RNFT2 (ring finger protein, transmembrane 2)
- TNF reporter robust z-score: 0.46
- call: inactive

RNFT2 (ring finger protein, transmembrane 2)
- TNF reporter robust z-score: 2.77
- call: inactive

SLC48A1
- call: inactive

SLC48A1
- TNF reporter robust z-score: -0.08
- call: inactive

SLC48A1
- TNF reporter robust z-score: 0.2
- call: inactive

SLC48A1
- TNF reporter robust z-score: -0.03
- call: inactive

SLC48A1
- TNF reporter robust z-score: 0.83
- call: inactive
